# Reference: article doi:10.1101/2020.03.25.006957
# Results are given in words; binding and its absence hold for the method and conditions named. Binding calls can cover weak binding; strength is not graded here. For some assays here: Sequences can lack the tags named with a protein. For some assays here: In cells and extracts the contact can be indirect.
# B1: MeGBSSI (cassava granule-bound starch synthase I) (enzyme, UniProt Q43784 79-608)
# chain: GHGMNLIFVGAEVGPWSKTGGLGDVLGGLPPAMAARGHRVMTVSPRYDQYKDAWDTSVSVEIKIGDRIETVRFFHSYKRGVDRVFVDHPMFLEKVWGKTGSKIYGPRAGLDYQDNQLRFSLLCLAALEAPRVLNLNSSKNFSGPYGEEVAFIANDWHTALLPCYLKAIYQPMGIYKHAKVAFCIHNIAYQGRFAFSDFPRLNLPDKFKSSFDFIDGYEKPVKGRKINWMKAGILESDRVLTVSPYYAQEVISGVERGVELDNFIRKTGIAGIINGMDVQEWNPVTDKYIDIHYDATTVMDAKPLLKEALQAEVGLPVDRNVPLIGFIGRLEEQKGSDIFVAAISQLVEHNVQIVILGTGKKKFEKQIEHLEVLYPDKARGVAKFNVPLAHMITAGADFMLVPSRFEPCGLIQLHAMRYGTVPIVASTGGLVDTVKEGYTGFQMGALHVECDKIDSADVAAIVKTVARALGTYATAALREMILNCMAQDLSWKGPARMWEKMLLDLEVTGSEPGTEGEEIAPLAKENVPTP
# B2: MeGBSSI, yeast two-hybrid fusion (enzyme, UniProt Q43784 1-608)
# chain: MATVIAAHFVSRSSHLSIHALETKANNLSHTGPWTQTITPNGLRSLNTMDKLQMKTQSKAVKKVSATGNGRPAAKIICGHGMNLIFVGAEVGPWSKTGGLGDVLGGLPPAMAARGHRVMTVSPRYDQYKDAWDTSVSVEIKIGDRIETVRFFHSYKRGVDRVFVDHPMFLEKVWGKTGSKIYGPRAGLDYQDNQLRFSLLCLAALEAPRVLNLNSSKNFSGPYGEEVAFIANDWHTALLPCYLKAIYQPMGIYKHAKVAFCIHNIAYQGRFAFSDFPRLNLPDKFKSSFDFIDGYEKPVKGRKINWMKAGILESDRVLTVSPYYAQEVISGVERGVELDNFIRKTGIAGIINGMDVQEWNPVTDKYIDIHYDATTVMDAKPLLKEALQAEVGLPVDRNVPLIGFIGRLEEQKGSDIFVAAISQLVEHNVQIVILGTGKKKFEKQIEHLEVLYPDKARGVAKFNVPLAHMITAGADFMLVPSRFEPCGLIQLHAMRYGTVPIVASTGGLVDTVKEGYTGFQMGALHVECDKIDSADVAAIVKTVARALGTYATAALREMILNCMAQDLSWKGPARMWEKMLLDLEVTGSEPGTEGEEIAPLAKENVPTP
# Columns and labels:
# [1] = target: T1, MeGBSSI (cassava granule-bound starch synthase I) (cassava, Manihot esculenta (endogenous in storage roots)) (UniProt Q43784); assay: co-IP
# T1 sequence: B1 chain
# [2] = target: T2, cYFP-MeGBSSI (cassava (Manihot esculenta)) (UniProt Q43784); assay: split reporter
# T2 sequence: B1 chain
# [3] = target: MeSBEI (cassava starch branching enzyme I) (cassava, Manihot esculenta (endogenous in storage roots)); assay: co-IP
# [4] = target: MeSSII (cassava soluble starch synthase II) (cassava, Manihot esculenta (endogenous in storage roots)); assay: co-IP
# [5] = target: MeSSI (cassava soluble starch synthase I) (cassava, Manihot esculenta (endogenous in storage roots)); assay: co-IP
# [6] = target: MeISAII (cassava isoamylase II) (cassava, Manihot esculenta (endogenous in storage roots)); assay: co-IP
# [7] = target: MeSSI, yeast two-hybrid fusion (cassava (Manihot esculenta)); assay: two-hybrid
# [8] = target: MeISAI, yeast two-hybrid fusion (cassava (Manihot esculenta)); assay: two-hybrid
molecule,measurement,setting,value
MeSSI (cassava soluble starch synthase I) (enzyme),binding,[1],binds
MeSSII (cassava soluble starch synthase II) (enzyme),binding,[1],binds
nYFP-MeSSI (cassava (Manihot esculenta)) (enzyme),binding,[2],binds
MeSBEI (cassava starch branching enzyme I),binding,[1],binds
nYFP-MeISAI (cassava (Manihot esculenta)) (enzyme),binding,[2],binds
B1,binding,[3],binds
same,binding,[4],binds
same,binding,[5],binds
same,binding,[6],binds
B2,binding,[7],binds
same,binding,[8],binds
